Laboratory results as given in patent US10549006B2, “High-coverage, low odor malodor counteractant compounds and methods of use” (International Flavors & Fragrances Inc., priority 2014, dated 2020).

Test: Organoleptic evaluation: odor character and intensity (averaged sensory scores)
Conditions: odor description
Procedure: (i) The organoleptic characters of the compounds (i.e., Compounds 1-6) were evaluated using an intensity scale of 0 to 3, where 0=none, 1=low and 3=strong. Averaged sensory scores were reported in the following: […]

Compound	Character (organoleptic)
CC(=O)C(C)C(C)C(C)C (stereo not drawn) [Compound 6, 3,4,5-trimethyl-hexan-2-one]	Herbal, green, metallic, medicinal
CCCCCCOC1CCC(C)(C)O1 (stereo not drawn) [Compound 4, 5-hexyloxy-2,2-dimethyl-tetrahydro-furan]	Sweet, aldehydic, buttery
CC(C)C(C)C(C)C(C)O (stereo not drawn) [Compound 5, 3,4,5-trimethyl-hexan-2-ol]	Herbal, medicinal, fruity, dirty
CCOC1C(C)CCCC1C (stereo not drawn) [Compound 2, 2-ethoxy-1,3-dimethyl-cyclohexane]	Spicy, camphor, fruity, apple
CC(C)CC1OC(C)CCC1C(C)CC=O (stereo not drawn) [Compound 3, 3-[6-methyl-2-(2-methylpropyl)tetrahydro-2H-pyran-3-yl]butanal]	Buttery, mushroom, chemical
COC1CCC(C(C)C)CC1 (stereo not drawn) [Compound 1, 1-methoxy-4-(methylethyl)-cyclohexane]	Light, camphoraceous, minty, terpineol-like
